Source: PubChem BioAssay AID1347426 (Functional Genomics Laboratory (NCATS/FGL), 2020)
Hit rate of the full screen: of about 31,000 sequences, about 1,400 (4.5%) were called active.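 How the source made its calls: active means median seed-adjusted z-score above 1 or below -1; inactive means the rest.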 Some of the results follow.

Test: Novel Modifiers of Survival Motor Neuron (SMN) Protein: Gene Identification via Genome-wide siRNA Screen;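 further: luminescence tracks full-length SMN protein made from the SMN2 reporter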
Conditions: HEK293T SMN2-luciferase reporter, siRNA knockdown, 72 h; actives lie on both sides
Outline: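 HEK293T cells stably carrying an SMN2 promoter/splicing cassette–luciferase reporter were reverse-transfected with 1 pmol siRNA per well (druggable-genome library, 3 siRNAs per gene) and grown 72 h at 37 °C. Luminescence, normalized to negative-control siRNA and log10-transformed, was scored as MAD.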

| Sequence | median seed-adjusted z-score |
| --- | --- |
| GCGUGUAAAUUCUACUGCATT against RB1 | inactive: 0.49 |
| CUACAUUUACGGGAGCAAATT against POP4 | inactive: -0.144 |
| GAGAUUAACGAGACCAGAATT against LMNB1 | inactive: 0.0619 |
| GGAAAGCGGCCUUCAAGGATT against EFHD2 | inactive: 0.874 |
| GGGAAGCAGUCGAUAUUAUTT against MAPKAP1 | inactive: -0.0499 |
| GAAUGGACUUCCUCAGUAATT against SLC5A4 | inactive: 0.602 |
| GAGCAUACAGCUUAGCAAATT against TLR7 | inactive: 0.189 |
| CUAAAGGACUUUUACGAUATT against TPCN1 | inactive: 0.139 |
| GCACUGCUCGUUUUCUAUATT against CD2 | inactive: 0.00791 |
| CAGACUCACCUUGACCUUATT against GLRA2 | inactive: -0.927 |
| GGACUUCCCUGAUGUGCUATT against LINGO1 | inactive: -0.443 |
| UCAUCUACACGCUCACCAATT against S1PR5 | inactive: 0.301 |
| GGUGAGAUGUGGUCUAUAUTT against HES7 | inactive: -0.286 |
| CUUCGGAACCUGUCGUAUATT against DHX57 | inactive: -0.138 |
| AGUCCAACAUCUCGCCCAATT against DUSP7 | inactive: 0 |
| CCGCUUGCACGUAUAGAUATT against HPCAL1 | inactive: -0.00535 |
| CAGCGAUUCGAGAAGGUUUTT against INPP5A | inactive: -0.00941 |
| GGAUGUAAGUUGUCCAAUATT against SUZ12 | active: -1.65 |
| GUGUUUAUCAUGGACAACATT against TESSP5 | inactive: 0 |
| CCACCUUGUUCGACACCAATT against ZNF134 | inactive: -0.0978 |
| AGGUCACAGUGGGUCCGAATT against DGAT2 | inactive: 0.195 |
| GCAACUGUUUGAGAUAGCATT against GUF1 | inactive: 0.119 |
| GGAAGGGACGCACCAUUUATT against SAT2 | inactive: -0.43 |
| CGAAGGCUAGGAAUAGGAATT against NAT13 | inactive: 0 |
| GCAGGAUUCAGGUUGAACATT against SSX1 | inactive: 0.0114 |
| AGAUCGAGCCGGACAUGAUTT against NACC1 | active: 1.59 |
| CGAUUAUCUUUACAUAGGATT against NAMPT | inactive: 0 |

Reformatted: results already given
Sequence	median seed-adjusted z-score
GGACUUCCCUGAUGUGCUATT against LINGO1	inactive: -0.443
UCAUCUACACGCUCACCAATT against S1PR5	inactive: 0.301

(list continues)

| Sequence | median seed-adjusted z-score |
| --- | --- |
| CCGUAAAUGUCCAUUUAUATT against CDKN2A | inactive: -0.0748 |
| CAUCUAAUCAUGUCAUUGATT against PRMT5 | inactive: -0.303 |
| GGUUGUUCAGAAGCUCUUATT against MBOAT2 | inactive: -0.282 |
| ACUGGAUCUUGCUAACAUUTT against P2RX2 | inactive: 0.0454 |
| GCCCGGAAGUUUUCUGAAUTT against DZIP1L | inactive: 0.203 |
| CAAACUCCCUGAUUCCCUUTT against CDC42BPG | inactive: 0.153 |
| GGAAAACUGUGGUUUCGCUTT against ZNF451 | inactive: 0 |
| GGAAAGAUCUUCAAUCAUATT against ZNF597 | inactive: 0.366 |
| GGAACGCAGUCAGAUUUGATT against CA5B | inactive: 0.317 |
| GAACAAGGUUUACGGACUATT against ZFHX3 | inactive: 0.045 |
| CGUUUCCUCUGAAGCCUAATT against FOXD2 | inactive: -0.0853 |
| CAACCAGAACCAUUGCAUUTT against OLAH | inactive: -0.44 |
| GACUAUUACCUCAGACGUATT against GPR81 | inactive: 0.0718 |
| GGCCUACAGCAACAAUGGATT against PCDH24 | inactive: 0.345 |
| GGAAUAUUUCACCAAUUAATT against GON4L | inactive: 0.116 |
| GAACACGCCCGGACAUAUATT against MAPK11 | inactive: 0.0663 |
| GGUCUAGCUGGGUAUUUAUTT against FAM3B | inactive: -0.327 |
| GUAUCAUCGAGAAAGGAGATT against COX17 | inactive: 0.772 |
| GCAGCACGAGUCUCUGGAATT against BATF2 | inactive: 0.714 |
| GACAGAUUAUUGGAACCAATT against MID1 | inactive: -0.294 |
| CUCCCGCAGUUGAACAUCATT against OCRL | inactive: -0.545 |
| GACCGGUUUAUGAAGUUAATT against PCDHA10 | inactive: 0.0404 |
| CAAGCGGAUUUCUACCCUUTT against PPP1R8 | inactive: -0.029 |
| GGAGUGUUCUGGAGAAGCATT against SLC7A10 | inactive: -0.732 |
| AGCUCAAAGAGUUCUCUAATT against PADI4 | inactive: 0.417 |
| AUACAUCAAAGAUUAGUAATT against NTS | inactive: 0.518 |
| GUACCUGUCCGAGACCUAUTT against TFEB | inactive: 0.34 |
